# Source: US7943611B2, “Imidazo[1,2-A]pyridin-3-yl-acetic acid hydrazides, processes, for their preparation and pharmaceutical uses thereof” (Ferrer International, S.A., priority 2006, dated 2011)
# For at least one compound, name, drawing or mass did not settle the structure.
# Test system: α2-subunit of the GABAA receptor
# Experiment: Ligand-binding assay, radiolabeled flumazenil competition, spinal cord membranes
# Details: rat spinal cord membranes, 1 nM radiolabeled flumazenil
# Protocol: a) Ligand-Binding Assays. Determination of the Affinity of Test Compounds for α1- and α2-GABAA Receptor
# Male Sprague-Dawley rats weighing 200-250 g at the time of experiment were used. After decapitation of the animal, the cerebellum (tissue that mostly contains α1-GABAA receptor) and spinal cord (tissue that mostly contains α2-GABAA receptor) were removed. The membranes were prepared according to the method by J. Lameh et al. (Prog. Neuro-Psychopharmacol. Biol. Psychiatry, 24, 979-991, 2000) and H. Noguchi et al. (Eur J Pharm, 434, 21-28, 2002) with slight modifications. Once the tissues weighed, they were suspended in 50 mM Tris.HCl (pH 7.4), 1:40 (v/v), or sucrose 0.32 M in the case of spinal cord, homogenized and then centrifuged at 20,000 g for 10 min at 7° C. […]
# Affinity was determined by competitive tests using radiolabeled flumazenil as ligand. […] The next day the plates were counted using a Perkin-Elmer Microbeta scintillation counter.
# For analysis of the results the percentage of specific binding for every concentration of test compound was calculated as follows: % specific binding=(X−N/T−N)×100 where, • X: amount of bound ligand for every concentration of compound. • T: total binding, maximum amount bound to the radiolabeled ligand. • N: non-specific binding, amount of radiolabeled ligand bound in a non-specific way irrespective of the receptor used. […]
smiles,measurement,setting,value
"Cc1ccc(-c2nc3ccc(C)cn3c2CC(=O)NN)cc1 [Example 3, (6-Methyl-2-p-tolyl-imidazo[1,2-a]pyridin-3-yl)-acetic Acid Hydrazide]",% Inhib 10^−5M (affinity for the α2-subunit of the GABAA receptor),10^−5 M test compound,80.8%
same,% Inhib 10^−7M (affinity for the α2-subunit of the GABAA receptor),10^−7 M test compound,25.8%
